No constants are given. Whether binding was seen depends on the method and setting. Binding seen in cells or lysates may run through a third protein. These calls come from enrichment with a bait or labelling near it, and not all partners need be listed.
Biological target: Xenopus SART1, endogenous (Xenopus laevis (endogenous in egg extracts)) (UniProt Q7ZYC1)
Assay: affinity purification with mass spectrometry; SART1 immunoprecipitated from Xenopus CSF egg extract with Xenopus SART1 antibody cross-linked to Dynabeads protein A, 4 °C 60 min, washed with CSF-XB and CSF-XB with 0.5 M KCl and 0.1% Triton X-100; eluted with 0.1 M triethylamine pH 11.5; shotgun mass spectrometry; three biological repeats

Protein sequences, listed by entry. Tags and fused reporters are not part of them. Lines headed by an entry give the natural chain unless they say otherwise; changes in a name come on top.
UniProt Q7ZYC1: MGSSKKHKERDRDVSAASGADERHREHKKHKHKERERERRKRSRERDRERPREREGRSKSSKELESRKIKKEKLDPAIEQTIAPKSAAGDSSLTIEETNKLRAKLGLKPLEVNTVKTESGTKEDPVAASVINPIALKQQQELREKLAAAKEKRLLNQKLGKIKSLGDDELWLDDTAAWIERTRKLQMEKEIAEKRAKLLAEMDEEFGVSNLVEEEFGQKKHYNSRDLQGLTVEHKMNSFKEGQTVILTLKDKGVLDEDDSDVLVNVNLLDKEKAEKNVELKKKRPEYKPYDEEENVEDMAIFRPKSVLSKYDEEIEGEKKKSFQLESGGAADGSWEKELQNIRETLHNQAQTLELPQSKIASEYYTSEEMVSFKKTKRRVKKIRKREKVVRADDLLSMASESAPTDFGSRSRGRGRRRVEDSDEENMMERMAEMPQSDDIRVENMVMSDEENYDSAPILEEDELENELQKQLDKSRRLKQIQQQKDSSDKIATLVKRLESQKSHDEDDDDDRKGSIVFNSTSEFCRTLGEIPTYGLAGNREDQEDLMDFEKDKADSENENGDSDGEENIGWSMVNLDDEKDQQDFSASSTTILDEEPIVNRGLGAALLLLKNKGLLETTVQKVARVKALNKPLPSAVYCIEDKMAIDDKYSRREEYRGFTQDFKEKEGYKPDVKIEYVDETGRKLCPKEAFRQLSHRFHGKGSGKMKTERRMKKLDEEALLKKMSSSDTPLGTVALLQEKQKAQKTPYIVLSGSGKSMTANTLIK
UniProt P70039: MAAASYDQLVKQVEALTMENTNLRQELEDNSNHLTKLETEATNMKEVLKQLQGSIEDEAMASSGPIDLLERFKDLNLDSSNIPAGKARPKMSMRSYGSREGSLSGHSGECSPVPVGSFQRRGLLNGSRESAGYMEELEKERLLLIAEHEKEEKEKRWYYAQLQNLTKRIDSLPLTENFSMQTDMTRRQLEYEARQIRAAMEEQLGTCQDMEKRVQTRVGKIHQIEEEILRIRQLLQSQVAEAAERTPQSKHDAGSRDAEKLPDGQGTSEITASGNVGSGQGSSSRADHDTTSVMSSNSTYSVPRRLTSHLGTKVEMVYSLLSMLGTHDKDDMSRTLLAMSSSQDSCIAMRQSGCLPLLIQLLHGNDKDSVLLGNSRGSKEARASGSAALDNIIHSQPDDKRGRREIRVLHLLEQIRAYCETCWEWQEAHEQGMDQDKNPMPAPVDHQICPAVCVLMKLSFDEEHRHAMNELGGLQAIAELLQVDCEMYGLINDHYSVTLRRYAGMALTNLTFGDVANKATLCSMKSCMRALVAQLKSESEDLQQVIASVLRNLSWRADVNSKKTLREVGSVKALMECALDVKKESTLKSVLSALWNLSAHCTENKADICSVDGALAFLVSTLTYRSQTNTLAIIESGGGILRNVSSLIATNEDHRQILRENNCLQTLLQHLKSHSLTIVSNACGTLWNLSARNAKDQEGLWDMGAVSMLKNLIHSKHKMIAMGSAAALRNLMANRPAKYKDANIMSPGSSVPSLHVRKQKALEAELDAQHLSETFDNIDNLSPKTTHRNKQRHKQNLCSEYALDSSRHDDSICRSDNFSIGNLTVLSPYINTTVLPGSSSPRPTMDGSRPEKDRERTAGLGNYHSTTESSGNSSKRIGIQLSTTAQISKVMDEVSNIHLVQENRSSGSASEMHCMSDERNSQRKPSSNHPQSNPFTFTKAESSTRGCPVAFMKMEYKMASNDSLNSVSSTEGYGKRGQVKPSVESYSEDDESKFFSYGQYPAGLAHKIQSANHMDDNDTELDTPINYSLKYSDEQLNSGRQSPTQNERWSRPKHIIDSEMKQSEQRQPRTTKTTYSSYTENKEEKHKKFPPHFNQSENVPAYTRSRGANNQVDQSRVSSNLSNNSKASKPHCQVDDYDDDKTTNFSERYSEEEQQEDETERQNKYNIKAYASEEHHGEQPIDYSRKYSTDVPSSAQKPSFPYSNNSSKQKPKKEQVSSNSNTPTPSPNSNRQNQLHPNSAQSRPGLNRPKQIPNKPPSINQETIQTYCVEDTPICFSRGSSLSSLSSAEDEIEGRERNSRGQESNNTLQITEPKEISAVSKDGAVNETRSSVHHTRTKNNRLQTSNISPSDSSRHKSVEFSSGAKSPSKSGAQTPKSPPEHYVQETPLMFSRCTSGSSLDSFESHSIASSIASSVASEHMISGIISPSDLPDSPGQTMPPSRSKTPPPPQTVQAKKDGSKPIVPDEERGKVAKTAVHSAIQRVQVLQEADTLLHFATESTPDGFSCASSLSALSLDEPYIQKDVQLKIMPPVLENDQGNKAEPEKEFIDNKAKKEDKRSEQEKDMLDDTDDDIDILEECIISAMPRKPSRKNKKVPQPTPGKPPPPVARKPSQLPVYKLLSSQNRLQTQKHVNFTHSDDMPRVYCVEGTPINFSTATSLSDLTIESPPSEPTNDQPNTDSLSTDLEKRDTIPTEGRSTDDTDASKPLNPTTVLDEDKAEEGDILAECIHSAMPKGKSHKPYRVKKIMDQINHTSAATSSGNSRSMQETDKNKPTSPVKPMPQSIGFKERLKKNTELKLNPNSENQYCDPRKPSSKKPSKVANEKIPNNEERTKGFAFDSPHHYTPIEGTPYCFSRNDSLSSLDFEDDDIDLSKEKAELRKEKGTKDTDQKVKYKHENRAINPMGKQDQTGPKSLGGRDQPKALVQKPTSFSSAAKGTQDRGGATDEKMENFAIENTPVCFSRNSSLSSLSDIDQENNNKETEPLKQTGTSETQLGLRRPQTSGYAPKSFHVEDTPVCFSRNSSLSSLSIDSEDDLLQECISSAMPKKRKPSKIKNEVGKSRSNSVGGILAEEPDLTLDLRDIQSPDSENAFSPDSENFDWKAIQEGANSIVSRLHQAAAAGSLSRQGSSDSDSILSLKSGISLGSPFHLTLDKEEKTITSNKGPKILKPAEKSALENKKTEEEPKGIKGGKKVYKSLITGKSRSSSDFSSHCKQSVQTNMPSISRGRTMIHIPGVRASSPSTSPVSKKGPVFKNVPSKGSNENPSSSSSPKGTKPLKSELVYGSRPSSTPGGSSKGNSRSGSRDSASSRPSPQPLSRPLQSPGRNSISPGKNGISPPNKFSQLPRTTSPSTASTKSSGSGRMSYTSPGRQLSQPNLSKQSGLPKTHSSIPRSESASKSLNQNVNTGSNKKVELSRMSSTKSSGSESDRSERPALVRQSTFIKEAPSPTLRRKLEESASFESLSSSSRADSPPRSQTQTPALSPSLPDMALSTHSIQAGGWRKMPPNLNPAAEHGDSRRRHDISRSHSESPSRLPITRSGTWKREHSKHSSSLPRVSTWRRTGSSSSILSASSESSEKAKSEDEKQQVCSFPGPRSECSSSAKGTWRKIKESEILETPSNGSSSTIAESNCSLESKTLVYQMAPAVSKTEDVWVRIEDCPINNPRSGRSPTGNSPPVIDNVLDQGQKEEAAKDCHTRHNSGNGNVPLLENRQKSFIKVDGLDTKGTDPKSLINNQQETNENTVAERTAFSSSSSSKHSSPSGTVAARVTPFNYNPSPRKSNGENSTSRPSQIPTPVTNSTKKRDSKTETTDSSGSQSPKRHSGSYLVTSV
UniProt Q498G2: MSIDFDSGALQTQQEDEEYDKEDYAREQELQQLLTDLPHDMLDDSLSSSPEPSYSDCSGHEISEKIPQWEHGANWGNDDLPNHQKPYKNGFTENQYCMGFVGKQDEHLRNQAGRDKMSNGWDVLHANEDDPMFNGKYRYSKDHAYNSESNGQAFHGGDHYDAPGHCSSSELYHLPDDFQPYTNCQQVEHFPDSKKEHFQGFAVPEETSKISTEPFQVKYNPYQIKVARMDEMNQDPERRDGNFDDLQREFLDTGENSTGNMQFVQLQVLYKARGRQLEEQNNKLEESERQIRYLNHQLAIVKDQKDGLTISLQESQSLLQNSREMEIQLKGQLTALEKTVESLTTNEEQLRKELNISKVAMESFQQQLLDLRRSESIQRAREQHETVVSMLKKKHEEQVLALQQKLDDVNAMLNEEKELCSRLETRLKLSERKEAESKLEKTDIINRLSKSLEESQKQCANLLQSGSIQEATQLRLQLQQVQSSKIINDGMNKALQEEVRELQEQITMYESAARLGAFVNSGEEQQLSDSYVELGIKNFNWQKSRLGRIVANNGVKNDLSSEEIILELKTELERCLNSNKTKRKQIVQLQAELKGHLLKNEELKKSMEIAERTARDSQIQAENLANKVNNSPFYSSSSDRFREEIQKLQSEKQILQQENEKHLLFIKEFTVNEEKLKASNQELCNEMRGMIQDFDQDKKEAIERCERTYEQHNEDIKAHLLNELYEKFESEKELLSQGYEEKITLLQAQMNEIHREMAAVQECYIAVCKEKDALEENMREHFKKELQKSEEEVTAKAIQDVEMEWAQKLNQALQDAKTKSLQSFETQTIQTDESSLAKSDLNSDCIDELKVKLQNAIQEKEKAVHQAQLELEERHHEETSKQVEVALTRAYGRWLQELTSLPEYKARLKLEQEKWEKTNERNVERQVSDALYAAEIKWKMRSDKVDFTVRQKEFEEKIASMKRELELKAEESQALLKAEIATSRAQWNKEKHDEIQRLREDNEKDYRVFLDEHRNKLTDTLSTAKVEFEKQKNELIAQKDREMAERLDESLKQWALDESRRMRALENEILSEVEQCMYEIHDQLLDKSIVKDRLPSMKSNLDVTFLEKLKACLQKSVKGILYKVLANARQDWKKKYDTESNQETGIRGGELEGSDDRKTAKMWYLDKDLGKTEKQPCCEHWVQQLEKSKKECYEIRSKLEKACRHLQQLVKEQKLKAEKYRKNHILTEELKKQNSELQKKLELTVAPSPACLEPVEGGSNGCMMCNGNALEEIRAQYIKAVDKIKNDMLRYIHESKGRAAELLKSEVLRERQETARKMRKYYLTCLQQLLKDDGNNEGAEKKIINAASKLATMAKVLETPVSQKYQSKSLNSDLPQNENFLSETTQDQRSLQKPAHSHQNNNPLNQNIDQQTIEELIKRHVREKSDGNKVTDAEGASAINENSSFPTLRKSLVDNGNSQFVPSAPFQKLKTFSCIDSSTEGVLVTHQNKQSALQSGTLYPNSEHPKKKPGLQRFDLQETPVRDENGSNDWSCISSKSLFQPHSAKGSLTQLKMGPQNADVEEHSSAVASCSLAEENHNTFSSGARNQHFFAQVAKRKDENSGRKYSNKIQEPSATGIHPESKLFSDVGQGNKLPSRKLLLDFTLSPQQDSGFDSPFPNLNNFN
UniProt P09406: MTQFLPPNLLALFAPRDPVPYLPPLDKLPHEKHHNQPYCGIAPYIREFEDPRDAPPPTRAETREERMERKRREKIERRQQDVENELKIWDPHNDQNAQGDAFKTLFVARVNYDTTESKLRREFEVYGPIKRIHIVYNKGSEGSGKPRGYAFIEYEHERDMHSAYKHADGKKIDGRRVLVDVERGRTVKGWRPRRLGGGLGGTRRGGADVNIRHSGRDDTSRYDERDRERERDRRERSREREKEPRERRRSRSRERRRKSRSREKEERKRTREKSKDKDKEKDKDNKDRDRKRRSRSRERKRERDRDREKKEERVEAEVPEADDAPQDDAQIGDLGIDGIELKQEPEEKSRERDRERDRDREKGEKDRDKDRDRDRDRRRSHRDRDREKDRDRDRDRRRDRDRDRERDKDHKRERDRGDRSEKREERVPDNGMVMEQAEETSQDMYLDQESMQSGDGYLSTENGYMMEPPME
UniProt P45429: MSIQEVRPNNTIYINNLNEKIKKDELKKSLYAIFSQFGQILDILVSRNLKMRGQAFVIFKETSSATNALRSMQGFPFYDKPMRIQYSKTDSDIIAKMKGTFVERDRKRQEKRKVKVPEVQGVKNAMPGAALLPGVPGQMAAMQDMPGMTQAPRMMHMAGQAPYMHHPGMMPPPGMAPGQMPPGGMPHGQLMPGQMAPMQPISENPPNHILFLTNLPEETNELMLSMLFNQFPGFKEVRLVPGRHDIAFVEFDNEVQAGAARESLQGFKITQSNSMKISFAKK

In the case of APC (from UniProt P70039 1-2829), the binding is reported as “binds”.

In the case of Cep152 (from UniProt Q498G2 1-1663), the binding is reported as “binds”.

For Plk1 (from UniProt P70032 1-598), the binding was “binds”.

In the case of SNRNP70 (from UniProt P09406 1-471), the binding is reported as “binds”.

For SNRPA (from UniProt P45429 1-282), the binding was “binds”.

B1: SF3B1 (protein, UniProt O57683 1-1307)
chain: MAKVAKTHEDIEAQIREIQGKKAALDEEEGVGLDSTGYFDQEIYGGSDSRFTGYVTSIAANEQEDDDDDVSSATFEQKKPGYHAPVALLNDIPQSTEQYDPFAEHRPQKIANREDEYKQQRRKMIISPERLDPFADGGKTPDPKLNARTFKDVMQEQYLTKEEREIRQQIAEKAKSGDLKVVNGSSASSAAQPPSKRKRRWDQTGDQTPGSTPKKLSSWDQAEVTPGHTPSSLRWDETPGRAKGNETPGATPGSKIWDPTPSHTPAGVATPGRGDTPGHVTPGHSGATSSARKNRWDETPKTERDTPGHGSGWAETPRTDRGGDSIGETPTPGASKRKSRWDETPASQMGGSTPVLTPGKTPIGTPAMNMATPTPGHIMSMTPEQLQAWRWEREIDERNRPLSDEELDAMFPEGYKVLPPPAGYVPIRTPARKLTATPTPLGGLTGFHMPTEDRSMKSVSDQPSGNLPFLKPDDIQYFDKLLVDVDESTLSPEEQKERKIMKLLLKIKNGTPPMRKAALRQITDKAREFGAGPLFNQILPLLMSPTLEDQERHLLVKVIDRILYKLDDLVRPYVHKILVVIEPLLIDEDYYARVEGREIISNLAKAAGLATMISTMRPDIDNMDEYVRNTTARAFAVVASALGIPSLLPFLKAVCKSKKSWQARHTGIKIVQQIAILMGCAILPHLRSLVEIIEHGLVDEQQKVRTISALAIAALAEAATPYGIESFDSVLKPLWKGIRQHRGKGLAAFLKAIGYLIPLMDAEYANYYTREVMLILIREFQSPDEEMKKIVLKVVKQCCGTDGVEANYIKTEILPPFFKHFWQHRMALDRRNYRQLVDTTVELANKVGAAEIISRIVDDLKDEAEQYRKMVMETIEKIMGNLGAADIDHKLEEQLIDGILYAFQEQTTEDSVMLNGFGTVVNALGKRVKPYLPQICGTVLWRLNNKSAKVRQQAADLISRTAVVMKTCQEEKLMGHLGVVLYEYLGEEYPEVLGSILGALKAIVNVIGMHKMTPPIKDLLPRLTPILKNRHEKVQENCIDLVGRIADRGAEYVSAREWMRICFELLELLKAHKKAIRRATVNTFGYIAKAIGPHDVLATLLNNLKVQERQNRVCTTVAIAIVAETCSPFTVLPALMNEYRVPELNVQNGVLKSLSFLFEYIGEMGKDYIYAVTPLLEDALMDRDLVHRQTASAVVQHMSLGVYGFGCEDSLNHLLNYVWPNVFETSPHVIQAVMGALEGLRVAIGPCRMVQYCLQGLFHPARKVRDVYWKIYNSIYIGSQDALIAHYPRIYNDEKNTYIRYELDYTL
For B1, the binding was “binds”.

B2: DDX42 (protein, UniProt Q7ZY47 1-947)
chain: MNWNKGGSGNKRGFGFGGFAISTGKKEEPKLPQVSHSAFQSASSKYGSTSNQLPSFYKIGSKRANFDEENSYFDDEEEDSSNVDLPYIPAENSPTRQQLRSKTDSDSEEDPLEAFMAEVEDQAAKDMRKLEERDKEKANARGIRDDIEEEDDQEAYFRYMAENPTAGLVPEEEEDNLEYDSDGNPIAPTTKRIIDPLPPIDHTEIEYPPFEKNFYEEHEAITSQTPQQITELRHKLNLRVSGAAPPRLCSSFAHFGFDEQLLHQIRKSEYTQPTPIQCQGIPVALSGRDMIGIAKTGSGKTAAFIWPILVHIMDQKELQPADGPIAVIVCPTRELCQQIHSECKRFGKAYNLRSVAVYGGGSMWEQAKALQEGAEIVVCTPGRLIDHVKKKATNLQRVTYLVFDEADRMFDMGFEYQVRSIANHVRPDRQTLLFSATFRKKIEKLARDILVDPIRVVQGDIGEANEDITQVVEILPSGPEKWTWLTRRLVEFTSTGSVLVFVTKKANAEELAANLRQDDHPLGLLHGDMDQSERNKVISDFKKKSIPVLVATDVAARGLDIPSIKTVVNYDVARDIDTHTHRIGRTGRAGEKGVAYTLLTSKESNFAGDLVRNLEGANQYVSKELLDLAMQNSWFRKSRFKAGKGKKLNIGGGGLGYRERPGLGAESSEHGTGGNVMSNYEAFKPSGGAMGDRLSAMKSAFQSQYKNHFVAASASTQKTGTSSINSGAWTSAGSLSSVPSAHPPSGKLPAEAAPPPVHTAMLGFTSSGTLSSIPTGYPANISSASYPAATLFGARDGASAGTESGGRERHSDSKGRHGDSHRPSDREGYRHGDGHRHSSSSRHGERNGGEGRRESSRDGRRDSSRDGESRRDGSRDGGEGRRESSRDGEGRRESSRDGDGRRESSGDGRREVVGDDGDSRKEGTREAKTDTFAIPVPPKRKKSRWDS
B2 was tested, and the binding was “binds”.

B3: Cep44 (protein, UniProt A2RVA7 1-384)
chain: MATGDVKGCIRKLEQRLRTLNYPRDVDYTGLIKGDPSASLPIISYTFTCYSTSIAEILISFGIELTTKSDLRFIEAVYKVLRDVFNYKPILTKQQFLQCAFSERKIQIICDIVDCVVKKHKEITGQNKVKSQLVKKVVSAKDQCEVFYPEDVSVQPSVKTTQKKPLVERHAGSEFLLPTKCYSSALVEDIEEEEPTSDSEGGSHLEHEMESPFETAETTPNSEQIELLRKQLAECQEKLQRLDCVEQRLQSLETSMKGKIIIDETDWNNLLSRVLLLETEGLLQSKKTDFSVPSEFACISEQRTSSRMTNEICSNLKTKADIPESHHQSSGYSFVLSADTSPIAIDINYSSLTEDSNETTKQRMERITKMMEETSKLLKCSNNT
With B3 the binding was “binds”.

B4: Cep97 (protein, UniProt Q6GPJ8 1-807)
chain: MAVAHLACDSQGSVVDLSGQGLQKLSPTLPFGNDTQTLILDKNQIIKLEHVEKCRNLVQLSVANNRLVRMMGVAKLIHLRVLNLPHNSIGYVEGLKDLVHLEWINLAGNNLKIIDQINSSTSLQHLDLSDNNISQIGDLSKLKSLKTLLLHGNNIASLRAASACLPQSLTILSLAENEIRDLNEVAFLAGLVDLEQLSIMNNPCVMATPSIPGFDYRPFIVSWCLNLKVLDGYVVSQKESLKAEWLYSQGKGRSYRLGQHIPLVQYLATVCPLTSAHGLQTEEDAKLDKILSKQRLHQKQLLHQTRSDGYLTSSTPNKRLPLSTEHHSPTHVLQTEPTVQVNNWLRSSSSEDHSYAVRNICSSPFGPPHYSSLYMEDIQTDEDKLNCSLLSSESTFMPVAPGLSPVSPTVELRVPAIKADLPVNETVIEFNKDHTELPPSETPEKPKLIPGLSAMQDDKSCCVYPVIKDENVTENIINCETAVSMESTQTSNGPTCHNLIMNCKQASVLDQDVNHINKISKAATKLQSCWRGFYARKYNPKVKDVCYEIRLSRMQEHIVFLTEEVIRLRKEKEEDRIQRILQGEAVRYLWEQVQAIQQWQNTVKLQTANSSENDLPSASNSKHANPALEELPSSPEKLNRKASPDIPDSGFHSVILNHCTMGNTEKNSSEESEYSQPSLDTGRHYNDKVPDSPADQDLTREEQSQSSKDSFTSEQDSSLLQQYLRSVEQLDETADNTSYSERTEESRPEITTCSDNSDLSCSISHFLPENSKQENIDIHSNLPSIDDGHNTPIPCDSSLLVPQPDLV
With B4 the binding was “binds”.

B5: POC5 (protein, UniProt Q6DFB7 1-572)
chain: MSSDEEYRESPILPKDSDHGSSVSSDLQDEYDELLRYAVVTPRFGPHFPEQNQLFTEQIKSDRFSSPKDPVQEQSLARNYSEENIPECSATSTSQRRSPPTANEEERAMSEKKSFLSGLEAFSPLHSEDLSLGGSTSSGSQVQQVRVKELPVPAENMDKVEDVLDLWSGTLKTNVMAELSKWRLTVIEQHKLEIKNQNEKHAEQISQLSSQIDKLQDHLQTYETSIQRKDEVISNLTHALEKHKEKMELMRTFTHWRLQLTEAREEDYARSLADRHYRNTLMKNAWKAWHSVIQSNWKDKIEQACRARAEEVCIELSNDYESKLTQLNSALGEARAEVQRLLAERGQFEGSMKKAFMRGVCALNMEAMSMFQGRESRMEYDPPPRREERDPSPSVTFQNPPVTSTHTSSTQHELQSALHSPVTCEPNYIHAFGPSTVSQSKEEAGAPAVISAATSASSVLSTQKLPMPRVVTSCQQKAGKIITARISARPDVSQRSSKIGSNITSMAVSPPISSIVVEKHHPVTQQTISQAAAAKYPRSALQSANSVGGRSTGQSGRVSQSHAGIHSIKVVD
In the case of B5, the binding is reported as “binds”.

— PMC12155601
